No constants are given. Whether binding was seen depends on the method and setting. Some binding calls cover weakened binding; strength is not graded here.
Assays:
Assay in all cases: two-hybrid; genes or gene fragments cloned into pMM5 and pMM6, transformed into SGY37 and YPH500
Rho1 (S. cerevisiae) = Rho1 (S. cerevisiae) (UniProt P06780)
Cdc42 (S. cerevisiae) = Cdc42 (S. cerevisiae) (UniProt P19073)
[1] = target: Cdc42-G12V (S. cerevisiae) (UniProt P19073)
[2] = target: T1, Rho1-Q68H (S. cerevisiae) (UniProt P06780)
T1 sequence: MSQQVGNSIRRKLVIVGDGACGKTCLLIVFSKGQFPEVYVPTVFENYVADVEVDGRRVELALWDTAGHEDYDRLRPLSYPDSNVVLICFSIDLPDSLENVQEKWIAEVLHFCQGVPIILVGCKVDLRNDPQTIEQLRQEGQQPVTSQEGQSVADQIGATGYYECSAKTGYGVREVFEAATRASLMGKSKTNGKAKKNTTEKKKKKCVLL

Protein sequences, listed by entry. Tags and fused reporters are not part of them. Lines headed by an entry give the natural chain unless they say otherwise; changes in a name come on top.
UniProt P19073: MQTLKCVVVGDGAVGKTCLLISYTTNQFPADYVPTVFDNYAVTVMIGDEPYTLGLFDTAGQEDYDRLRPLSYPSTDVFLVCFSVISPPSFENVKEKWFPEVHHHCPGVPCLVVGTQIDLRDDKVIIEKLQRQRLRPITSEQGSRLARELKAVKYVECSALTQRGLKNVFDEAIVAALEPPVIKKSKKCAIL

[3] = target: Cdc42-Q61L (S. cerevisiae) (UniProt P19073)
[4] = target: Cdc42-D57Y (S. cerevisiae) (UniProt P19073)
[5] = target: Rho1-G22A (S. cerevisiae) (UniProt P06780)
[6] = target: Rho1-G19V (S. cerevisiae) (UniProt P06780)

Measured: binding

B1: Gps1 (GTPase-mediated polarity switch 1) (protein, UniProt Q99299 1-758)
chain: MIIRAPIRTKTKSFRGDQMDFKFPSNESLPRGTLEEYHLNNHHLLNDVFAAENGVSRDEDGNSQTLSDYTSTSNTNTNSGYSSNGYYSFANISDNTTSSPRIVINQNETARLTSSDSNKSDFFASHDFPGNDSLHYSSSNVVKNQLHSMEAIPEGNITGSISTAFQTIPTADNVSYDIAPSSASSLLPRKSTSKSAILPSTQEAKPMTKLNMEKDIKTIELNNSVVPKPKKKLNRVPTIRRVESSRFSNSRYSSSVSSKSSSSRCSLKRSKAIRCKGGLLYYFTSLGIKIKKKLRKLRLVLRRRLFSYNVQKVPSATNSKTTKSKANINNKSKKRGTNLVNKNSNSTPRQKKSQRYVSNLQRSISSKSLVPVLAPQKKTKPLTVDTKFKANHPQSEDSKVGSNTPRSPLVSYTPSLRRTNSSIRRAASILTASATMTPANNKNSFISVPDNVSHAVTRNSSMYSRSRLVRSKPSTALNAIARQPSIVVENKVIPLSMNRYSIKEEDEYVIDTSSMRELSPVNSVCSSDYDRESSESYSNYADAMETTEVDNKDRVECNNEIQNVDANNEETSNEESYNLMKHYLSTVIAQRIMLRVQIARIQNYKSNVVYMNKSAETNSTIYEDLVDSLLTEYEADGSSSQIFDGVTVRADEEEEEDEDDEDDEEEEEENDDEEDEEDEEDDEDDEEEEEKRKEGEGRNLAKEVDELAELSPMRKQSDLSITLRSPFAMLNPAYSNSIISLPTGVVKRSLTLPVGMKI
binds: Rho1 (S. cerevisiae) | Cdc42 (S. cerevisiae)

B2: Gps1-1-290 (N-terminal 290 residues of Gps1) (domain or fragment, UniProt Q99299 1-290)
chain: MIIRAPIRTKTKSFRGDQMDFKFPSNESLPRGTLEEYHLNNHHLLNDVFAAENGVSRDEDGNSQTLSDYTSTSNTNTNSGYSSNGYYSFANISDNTTSSPRIVINQNETARLTSSDSNKSDFFASHDFPGNDSLHYSSSNVVKNQLHSMEAIPEGNITGSISTAFQTIPTADNVSYDIAPSSASSLLPRKSTSKSAILPSTQEAKPMTKLNMEKDIKTIELNNSVVPKPKKKLNRVPTIRRVESSRFSNSRYSSSVSSKSSSSRCSLKRSKAIRCKGGLLYYFTSLGIKI
binds: [1] | [2] | Rho1 (S. cerevisiae) | [3] | Cdc42 (S. cerevisiae) | [4] | [5] | [6]
